Laboratory results as given in paper PMC4509546, “Structural Characterization of the Chaetomium thermophilum TREX-2 Complex and its Interaction with the mRNA Nuclear Export Factor Mex67:Mtr2” (Structure(London, England:1993), 2015).
These are yes or no findings as the source states them, for the method shown. Binding can be weak; no strength is given. For some of these results: Binding seen in cells or lysates may run through a third protein.

Protein sequences, listed by entry. Tags and fused reporters are not part of them. Lines headed by an entry give the natural chain unless they say otherwise; changes in a name come on top.
UniProt G0SGL4: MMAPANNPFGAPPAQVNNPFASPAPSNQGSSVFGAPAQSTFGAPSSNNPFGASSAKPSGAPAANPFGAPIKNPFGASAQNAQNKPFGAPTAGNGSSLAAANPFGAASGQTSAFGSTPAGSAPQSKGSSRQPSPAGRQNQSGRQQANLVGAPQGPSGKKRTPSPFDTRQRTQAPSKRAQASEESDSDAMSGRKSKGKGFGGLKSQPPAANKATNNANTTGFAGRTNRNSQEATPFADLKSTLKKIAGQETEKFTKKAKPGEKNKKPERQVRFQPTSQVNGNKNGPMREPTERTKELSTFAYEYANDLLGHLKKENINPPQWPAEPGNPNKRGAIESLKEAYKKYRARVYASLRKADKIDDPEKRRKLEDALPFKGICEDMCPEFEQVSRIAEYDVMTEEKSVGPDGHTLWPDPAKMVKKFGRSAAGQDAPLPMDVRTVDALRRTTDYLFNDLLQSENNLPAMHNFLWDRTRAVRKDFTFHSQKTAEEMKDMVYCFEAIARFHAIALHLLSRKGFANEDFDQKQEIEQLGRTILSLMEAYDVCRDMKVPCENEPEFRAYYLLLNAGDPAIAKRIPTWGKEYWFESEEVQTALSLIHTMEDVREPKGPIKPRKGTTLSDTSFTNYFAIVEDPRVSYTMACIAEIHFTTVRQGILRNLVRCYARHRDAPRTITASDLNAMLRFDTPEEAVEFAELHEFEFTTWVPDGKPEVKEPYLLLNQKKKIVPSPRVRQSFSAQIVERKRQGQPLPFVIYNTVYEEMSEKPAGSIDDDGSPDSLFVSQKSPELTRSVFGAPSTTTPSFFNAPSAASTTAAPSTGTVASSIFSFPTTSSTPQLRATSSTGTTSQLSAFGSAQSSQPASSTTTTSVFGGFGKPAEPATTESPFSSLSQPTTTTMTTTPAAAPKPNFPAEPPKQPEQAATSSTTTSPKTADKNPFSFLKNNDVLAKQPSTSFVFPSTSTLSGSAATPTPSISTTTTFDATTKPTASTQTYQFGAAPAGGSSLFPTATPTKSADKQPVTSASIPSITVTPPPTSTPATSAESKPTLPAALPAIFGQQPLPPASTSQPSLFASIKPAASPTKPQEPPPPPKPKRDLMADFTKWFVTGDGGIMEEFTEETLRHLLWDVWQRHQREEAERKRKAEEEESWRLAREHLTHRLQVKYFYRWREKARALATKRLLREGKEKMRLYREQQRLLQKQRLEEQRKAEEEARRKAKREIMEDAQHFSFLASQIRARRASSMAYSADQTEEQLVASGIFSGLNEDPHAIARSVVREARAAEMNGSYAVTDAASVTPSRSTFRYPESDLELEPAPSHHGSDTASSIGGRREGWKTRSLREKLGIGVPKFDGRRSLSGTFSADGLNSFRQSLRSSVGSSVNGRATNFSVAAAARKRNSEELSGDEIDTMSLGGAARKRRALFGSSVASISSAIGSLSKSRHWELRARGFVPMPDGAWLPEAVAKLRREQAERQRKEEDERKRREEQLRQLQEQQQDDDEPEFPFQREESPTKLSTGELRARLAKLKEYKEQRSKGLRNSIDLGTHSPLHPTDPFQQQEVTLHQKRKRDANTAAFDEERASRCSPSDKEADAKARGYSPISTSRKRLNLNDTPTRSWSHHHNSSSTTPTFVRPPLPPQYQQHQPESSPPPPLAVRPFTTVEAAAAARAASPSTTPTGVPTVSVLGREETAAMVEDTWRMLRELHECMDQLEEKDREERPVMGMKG

What was measured:
[1] = biological target: ctSac3^CID (C. thermophilum Sac3 CID region, residues 1086-1170) (Chaetomium thermophilum) (UniProt G0SGL4); assay: pull-down + SEC; GST-TEV-ctSac3 CID co-expressed with Sus1 and Cdc31 in E. coli; GSH purification, TEV cleavage, size-exclusion chromatography; fractions on SDS-PAGE
[2] = biological target: ctSac3^CID (C. thermophilum Sac3 CID region, residues 1086-1170) (Chaetomium thermophilum) (UniProt G0SGL4); assay: crystal structure; ctSac3(1086-1170):ctSus1:ctCdc31, 3.3 Å; 20% PEG 3350, 0.1 M Na succinate, sitting drop; both purified

| Substance | binding [1] | binding [2] |
| --- | --- | --- |
| ctCdc31 (XP_006694724), bacterially expressed (from UniProt G0SAR7) | binds | binds |
| ctSus1 (CTHT_0027270), bacterially expressed (from UniProt G0S6Y1) | binds | binds |
